In assay [1] the target is T1, V5 tagged full length mouse LIS1 (mouse) (UniProt P63005).
T1 sequence: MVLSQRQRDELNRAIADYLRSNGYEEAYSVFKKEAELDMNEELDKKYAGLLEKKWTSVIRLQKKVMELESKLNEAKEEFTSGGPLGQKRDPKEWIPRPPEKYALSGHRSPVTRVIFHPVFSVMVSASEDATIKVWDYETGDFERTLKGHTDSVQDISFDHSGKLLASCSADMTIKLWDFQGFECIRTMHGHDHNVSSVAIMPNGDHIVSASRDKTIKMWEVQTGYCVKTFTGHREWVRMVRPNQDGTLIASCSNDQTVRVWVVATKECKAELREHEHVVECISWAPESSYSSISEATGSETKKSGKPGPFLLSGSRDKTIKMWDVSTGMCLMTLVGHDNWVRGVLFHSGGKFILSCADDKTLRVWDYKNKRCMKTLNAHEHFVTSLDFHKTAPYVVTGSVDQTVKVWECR
Briefly: co-IP; lysate of mature osteoclasts transduced with LIS1-V5 or empty vector, H-buffer; IP with anti-LIS1 polyclonal antibody, blots with anti-p150^glued, anti-DIC and anti-V5.

Sequences of proteins named here, by UniProt entry; tags and fusion partners are left off.
UniProt O08788: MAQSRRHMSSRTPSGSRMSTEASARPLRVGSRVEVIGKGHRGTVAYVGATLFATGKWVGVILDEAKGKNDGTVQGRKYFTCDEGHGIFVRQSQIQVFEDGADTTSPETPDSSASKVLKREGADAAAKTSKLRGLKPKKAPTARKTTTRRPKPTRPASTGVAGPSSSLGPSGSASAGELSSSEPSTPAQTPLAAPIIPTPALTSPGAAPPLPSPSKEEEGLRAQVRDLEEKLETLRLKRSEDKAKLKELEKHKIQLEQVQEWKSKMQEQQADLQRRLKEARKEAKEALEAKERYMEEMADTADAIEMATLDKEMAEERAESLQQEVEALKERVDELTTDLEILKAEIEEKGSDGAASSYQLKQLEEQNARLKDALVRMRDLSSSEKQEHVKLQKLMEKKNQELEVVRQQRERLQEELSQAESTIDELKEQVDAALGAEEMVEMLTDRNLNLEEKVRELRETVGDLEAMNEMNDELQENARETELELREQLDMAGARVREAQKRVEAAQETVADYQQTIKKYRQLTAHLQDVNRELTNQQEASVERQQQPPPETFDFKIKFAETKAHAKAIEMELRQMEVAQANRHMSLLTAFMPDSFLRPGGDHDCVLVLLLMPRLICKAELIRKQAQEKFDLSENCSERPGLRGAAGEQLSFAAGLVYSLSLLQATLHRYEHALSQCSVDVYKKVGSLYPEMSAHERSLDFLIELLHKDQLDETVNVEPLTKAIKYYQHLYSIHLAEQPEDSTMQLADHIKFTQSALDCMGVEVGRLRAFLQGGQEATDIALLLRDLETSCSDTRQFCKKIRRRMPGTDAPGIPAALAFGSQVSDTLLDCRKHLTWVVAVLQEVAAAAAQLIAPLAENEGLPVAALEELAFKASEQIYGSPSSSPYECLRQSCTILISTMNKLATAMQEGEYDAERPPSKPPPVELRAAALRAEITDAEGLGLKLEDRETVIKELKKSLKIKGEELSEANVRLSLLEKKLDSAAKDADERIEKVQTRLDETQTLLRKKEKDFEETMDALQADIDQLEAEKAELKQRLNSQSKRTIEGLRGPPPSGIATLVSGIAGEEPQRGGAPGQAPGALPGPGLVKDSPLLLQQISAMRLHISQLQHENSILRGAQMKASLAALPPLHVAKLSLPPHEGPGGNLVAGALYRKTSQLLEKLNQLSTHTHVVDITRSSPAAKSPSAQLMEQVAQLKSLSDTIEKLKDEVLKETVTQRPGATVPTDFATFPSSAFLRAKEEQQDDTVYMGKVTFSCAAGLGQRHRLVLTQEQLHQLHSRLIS

In assay [2] the target is HA tagged full length mouse Plekhm1 (mouse) (UniProt Q7TSI1). Kind of assay: co-IP; lysate of mature osteoclasts transduced with HA-Plekhm1 constructs, H-buffer (20 mM HEPES pH 7.4, 1% Triton X-100, 1 mM EDTA, 150 mM NaCl, 1 mM DTT); IP with anti-HA, blots with anti-LIS1, anti-DIC and anti-HA.
Assay [3] deals with T2, GST fusion protein of the RUN domain of mouse Plekhm1 (mouse) (UniProt Q7TSI1).
T2 sequence: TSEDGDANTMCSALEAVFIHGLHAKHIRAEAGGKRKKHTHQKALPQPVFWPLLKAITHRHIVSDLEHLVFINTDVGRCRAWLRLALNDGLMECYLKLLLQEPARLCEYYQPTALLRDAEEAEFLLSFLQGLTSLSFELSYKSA
Briefly: pull-down; 2 µg GST fusion protein of single Plekhm1 domains on glutathione beads, 2 mg mature osteoclast lysate, 2 hours at 4°C, IP buffer (20 mM Hepes pH 7.4, 120 mM NaCl, 5% glycerol, 0.5 mM EDTA, 0.2% NP-40); immunoblot with anti-LIS1; only the target purified.

These are yes or no findings as the source states them, for the method shown. Binding seen in cells or lysates may run through a third protein. Some results given as binding are weak or reduced against the parent protein; the word gives no strength. For part of these data: Sequences can lack the tags named with a protein.

For the molecule “p150^glued subunit of dynactin complex, endogenous (from UniProt O08788 1-1281)”, the binding result in assay [1] was “binds”.

B1: LIS1 (PAFAH1b1, platelet-activating factor acetylhydrolase isoform 1b subunit 1), endogenous (protein, UniProt P63005 1-410)
chain: MVLSQRQRDELNRAIADYLRSNGYEEAYSVFKKEAELDMNEELDKKYAGLLEKKWTSVIRLQKKVMELESKLNEAKEEFTSGGPLGQKRDPKEWIPRPPEKYALSGHRSPVTRVIFHPVFSVMVSASEDATIKVWDYETGDFERTLKGHTDSVQDISFDHSGKLLASCSADMTIKLWDFQGFECIRTMHGHDHNVSSVAIMPNGDHIVSASRDKTIKMWEVQTGYCVKTFTGHREWVRMVRPNQDGTLIASCSNDQTVRVWVVATKECKAELREHEHVVECISWAPESSYSSISEATGSETKKSGKPGPFLLSGSRDKTIKMWDVSTGMCLMTLVGHDNWVRGVLFHSGGKFILSCADDKTLRVWDYKNKRCMKTLNAHEHFVTSLDFHKTAPYVVTGSVDQTVKVWECR
Take B1: the binding entry in assay [2] and in assay [3] was “binds” in each case.
